Reference: PubChem BioAssay AID270 (DTP/NCI, 2004)
The list shows only some results of the screen, not a fair sample: it is rich in T/C values a quarter to a half above the control, in often repeated tests (any T/C) and in doses without a T/C. Other doses and runs of a compound stand elsewhere. T/C: endpoint of the treated group in % of that of the vehicle group. Some T/C values carry the count of animals alive at the toxicity check (mostly the fifth day); where none is given, no animal had died by that day. Schedule codes are those of the source, taken here to give the interval after Q, in days (D) or hours (H), and the number of doses after X. Some doses have a count of surviving animals in place of a T/C: the source holds a T/C of zero for them, seemingly a mark for toxic or unscored doses. Some survivor counts are full or nearly so, which does not show that the dose was tolerated: the source hardly ever lists a survival T/C far under the control, and the zero likely stands for such cases as well. Counts of survivors are from the toxicity check (mostly the fifth day) where no day follows; animals may have died later. Some schedule codes hold Z or #, which are not explained here. Some doses were run more than once; the values are given in rising order. For survival time, this PubChem deposit counts one and a half times the control or more as active, and values a quarter to a half above the control carry no call in these data; other NCI protocols may use other cut-offs.

Tested on: BDF1 mice, s.c. Lewis lung carcinoma, T/C %
Assay: NCI In Vivo Anticancer Drug Screen. Data for tumor model Lewis Lung Carcinoma (subcutaneous) in B6D2F1 (BDF1) mice
In short: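 The value reflects a ratio in which the treated cohort's survival time or tumour size is compared against mice receiving only vehicle.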

[1] = T/C endpoint: median survival time, dose: 18.75 mg/kg/injection, schedule: Q01DX009 (ip), vehicle: Klucel (hydroxypropylcellulose) (HPC), higher T/C = longer survival
[2] = T/C endpoint: median survival time, dose: 37.5 mg/kg/injection, schedule: Q01DX009 (ip), vehicle: Klucel (hydroxypropylcellulose) (HPC), higher T/C = longer survival
[3] = T/C endpoint: median survival time, dose: 100.0 mg/kg/injection, schedule: Q01DX009 (ip), vehicle: Klucel (hydroxypropylcellulose) (HPC), higher T/C = longer survival
[4] = T/C endpoint: median survival time, dose: 200.0 mg/kg/injection, schedule: Q01DX009 (ip), vehicle: Klucel (hydroxypropylcellulose) (HPC), higher T/C = longer survival
[5] = T/C endpoint: mean tumor weight, dose: 50.0 mg/kg/injection, schedule: Q01DX011 (ip), vehicle: saline, higher T/C = larger tumour
[6] = T/C endpoint: median survival time, dose: 12.5 mg/kg/injection, schedule: Q01DX009 (ip), vehicle: saline with Tween-80, higher T/C = longer survival
[7] = T/C endpoint: median survival time, dose: 200.0 mg/kg/injection, schedule: Q01DX009 (ip), vehicle: saline with Tween-80, higher T/C = longer survival
[8] = T/C endpoint: median survival time, dose: 50.0 mg/kg/injection, schedule: Q01DX009 (ip), vehicle: saline with Tween-80, higher T/C = longer survival
[9] = T/C endpoint: median survival time, dose: 100.0 mg/kg/injection, schedule: Q01DX009 (ip), vehicle: saline with Tween-80, higher T/C = longer survival

O=NN(CCCl)C(=O)Nc1ccc(Br)cc1
survivor count [1]: 10 of 10
survivor count [2]: 9 of 10
survivor count (T/C endpoint: median survival time, dose: 75.0 mg/kg/injection, schedule: Q01DX009 (ip), vehicle: Klucel (hydroxypropylcellulose) (HPC), higher T/C = longer survival): 10 of 10

C[C@]12CC[C@H]3[C@@H](CC[C@]4(O)C[C@@H](O)CC[C@]34/C=N/O)[C@@]1(O)CC[C@@H]2C1=COC(=O)C1
T/C (T/C endpoint: mean tumor weight, dose: 7.5 mg/kg/injection, schedule: Q01DX011 (ip), vehicle: carboxymethylcellulose (CMC), evaluated on day 12, higher T/C = larger tumour): 141 % of control [4 of 6 alive]
survivor count (T/C endpoint: mean tumor weight, dose: 60.0 mg/kg/injection, schedule: Q01DX011 (ip), vehicle: carboxymethylcellulose (CMC), higher T/C = larger tumour): 3 of 6

CCOC(C)C(/C=N/NC(N)=S)=NNC(N)=S (stereo not drawn)
survivor count (T/C endpoint: mean tumor weight, dose: 240.0 mg/kg/injection, schedule: Q01DX011 (ip), vehicle: saline, higher T/C = larger tumour): 0 of 6

C1#CCCCCCC#CCCCC1
survivor count (T/C endpoint: median survival time, dose: 25.0 mg/kg/injection, schedule: Q01DX009 (ip), vehicle: Klucel (hydroxypropylcellulose) (HPC), higher T/C = longer survival): 10 of 10
survivor count (T/C endpoint: median survival time, dose: 50.0 mg/kg/injection, schedule: Q01DX009 (ip), vehicle: Klucel (hydroxypropylcellulose) (HPC), higher T/C = longer survival): 10 of 10
survivor count [3]: 10 of 10
survivor count [4]: 10 of 10

O=c1[nH]c(=O)n(C2CC(O)C(CO)O2)cc1C(F)(F)F (stereo not drawn)
survivor count (T/C endpoint: median survival time, dose: 20.0 mg/kg/injection, schedule: Q01DX009 (ip), vehicle: saline, higher T/C = longer survival): 9 of 10
survivor count (T/C endpoint: median survival time, dose: 40.0 mg/kg/injection, schedule: Q01DX009 (ip), vehicle: saline, higher T/C = longer survival): 10 of 10

Nc1ccc(N=Nc2ccccc2)c(N)c1
survivor count [1]: 10 of 10
survivor count [2]: 10 of 10
survivor count [3]: 5 of 10
survivor count (T/C endpoint: median survival time, dose: 400.0 mg/kg/injection, schedule: Q01DX009 (ip), vehicle: Klucel (hydroxypropylcellulose) (HPC), higher T/C = longer survival): 2 of 10

CC(C)c1ccc(O)c(=O)cc1
survivor count (T/C endpoint: mean tumor weight, dose: 150.0 mg/kg/injection, schedule: Q01DX011 (ip), vehicle: carboxymethylcellulose (CMC), higher T/C = larger tumour): 3 of 6

c1ccc2cc3c(cc2c1)Cn1c-3nc2ccccc21
survivor count (T/C endpoint: mean tumor weight, dose: 80.0 mg/kg/injection, schedule: Q01DX011 (ip), vehicle: carboxymethylcellulose (CMC), higher T/C = larger tumour): 2 of 6
survivor count (T/C endpoint: mean tumor weight, dose: 120.0 mg/kg/injection, schedule: Q01DX011 (ip), vehicle: carboxymethylcellulose (CMC), higher T/C = larger tumour): 1 of 6
survivor count (T/C endpoint: mean tumor weight, dose: 180.0 mg/kg/injection, schedule: Q01DX011 (ip), vehicle: carboxymethylcellulose (CMC), higher T/C = larger tumour): 1 of 6 and 3 of 6
survivor count (T/C endpoint: mean tumor weight, dose: 265.0 mg/kg/injection, schedule: Q01DX011 (ip), vehicle: carboxymethylcellulose (CMC), higher T/C = larger tumour): 3 of 7
survivor count (T/C endpoint: mean tumor weight, dose: 400.0 mg/kg/injection, schedule: Q01DX011 (ip), vehicle: carboxymethylcellulose (CMC), higher T/C = larger tumour): 1 of 7
survivor count (T/C endpoint: mean tumor weight, dose: 600.0 mg/kg/injection, schedule: Q01DX011 (ip), vehicle: carboxymethylcellulose (CMC), higher T/C = larger tumour): 0 of 7

CN(C)Nc1ncnc2nc[nH]c12
survivor count (T/C endpoint: mean tumor weight, dose: 25.0 mg/kg/injection, schedule: Q01DX011 (ip), vehicle: saline, higher T/C = larger tumour): 0 of 6

CCCCn1ccnc1C
T/C (T/C endpoint: median survival time, dose: 6.25 mg/kg/injection, schedule: Q01DX009 (ip), vehicle: saline, higher T/C = longer survival): 127 % of control

CC(=O)c1c(O)c(C)c(O)c(Cc2c(O)c3c(c(C(=O)/C=C/c4ccccc4)c2O)OC(C)(C)C=C3)c1O
survivor count [5]: 0 of 6

CCCCn1cnc2c(SC)ncnc21
survivor count [6]: 10 of 10
survivor count [7]: 0 of 10

C1=Cc2ccccc2CC1
survivor count (T/C endpoint: mean tumor weight, dose: 450.0 mg/kg/injection, schedule: Q01DX011 (ip), vehicle: other, higher T/C = larger tumour): 2 of 6

COc1cc(C(=O)OC2CC34CCNC35CC(OC5(OC)C2O)c2cc3c(cc24)OCO3)ccc1O (stereo not drawn)
survivor count (T/C endpoint: mean tumor weight, dose: 2.0 mg/kg/injection, schedule: Q01DX011 (ip), vehicle: carboxymethylcellulose (CMC), higher T/C = larger tumour): 1 of 4

C[C@]12CCC(=O)C=C1CC[C@@H]1[C@@H]2C(=O)C[C@]2(C)C3=CC(=O)O[C@H]3C[C@@H]12
survivor count [8]: 8 of 10

N#Cc1ncc(C(Cl)Cl)nc1Cl
survivor count [9]: 10 of 10
survivor count [7]: 4 of 10

Oc1ccc(O)c(/C=N/NC(=S)NC2CC3CC2C2C=CCC32)c1 (stereo not drawn)
survivor count (T/C endpoint: median survival time, dose: 12.5 mg/kg/injection, schedule: Q01DX009 (ip), vehicle: olive oil, sesame oil, peanut oil, higher T/C = longer survival): 10 of 10
survivor count (T/C endpoint: median survival time, dose: 100.0 mg/kg/injection, schedule: Q01DX009 (ip), vehicle: olive oil, sesame oil, peanut oil, higher T/C = longer survival): 9 of 10
survivor count (T/C endpoint: median survival time, dose: 200.0 mg/kg/injection, schedule: Q01DX009 (ip), vehicle: olive oil, sesame oil, peanut oil, higher T/C = longer survival): 10 of 10
survivor count (T/C endpoint: median survival time, dose: 400.0 mg/kg/injection, schedule: Q01DX009 (ip), vehicle: olive oil, sesame oil, peanut oil, higher T/C = longer survival): 3 of 10

COc1cc(OC)c(OC)cc1/C=C\c1ccnc2ccccc12
survivor count [4]: 10 of 10

CO[C@H]1/C=C/O[C@@]2(C)Oc3c(C)c(O)c4c(O)c(c(/C=N/N5C(C)CN(Cc6ccccc6)CC5C)c(O)c4c3C2=O)NC(=O)/C(C)=C\C=C\[C@H](C)[C@H](O)[C@@H](C)[C@@H](O)[C@@H](C)[C@H](OC(C)=O)[C@@H]1C (stereo partly drawn)
survivor count (T/C endpoint: median survival time, dose: 0.4 mg/kg/injection, schedule: Q02DX Z (oral), vehicle: Klucel (hydroxypropylcellulose) (HPC), higher T/C = longer survival): 8 of 10
survivor count (T/C endpoint: median survival time, dose: 0.8 mg/kg/injection, schedule: Q02DX Z (oral), vehicle: Klucel (hydroxypropylcellulose) (HPC), higher T/C = longer survival): 10 of 10
survivor count (T/C endpoint: median survival time, dose: 6.25 mg/kg/injection, schedule: Q02DX Z (oral), vehicle: Klucel (hydroxypropylcellulose) (HPC), higher T/C = longer survival): 8 of 10
T/C [8]: 125 % of control
survivor count (T/C endpoint: median survival time, dose: 400.0 mg/kg/injection, schedule: Q01DX009 (ip), vehicle: saline with Tween-80, higher T/C = longer survival): 10 of 10

C=COCC(C)C (tested in a mixture with another compound)
survivor count (T/C endpoint: median survival time, dose: 10.0 mg/kg/injection, schedule: Q01DX009 (ip), vehicle: other, higher T/C = longer survival): 5 of 10
survivor count (T/C endpoint: median survival time, dose: 18.75 mg/kg/injection, schedule: Q01DX009 (ip), vehicle: other, higher T/C = longer survival): 1 of 10
survivor count (T/C endpoint: median survival time, dose: 37.5 mg/kg/injection, schedule: Q01DX009 (ip), vehicle: other, higher T/C = longer survival): 0 of 10
survivor count (T/C endpoint: median survival time, dose: 75.0 mg/kg/injection, schedule: Q01DX009 (ip), vehicle: other, higher T/C = longer survival): 0 of 10
survivor count (T/C endpoint: median survival time, dose: 150.0 mg/kg/injection, schedule: Q01DX009 (ip), vehicle: other, higher T/C = longer survival): 0 of 10

O=NN(CCCl)C(=O)NC1CCC(NC(=O)N(CCCl)N=O)CC1 (stereo not drawn)
T/C (T/C endpoint: median survival time, dose: 30.0 mg/kg/injection, schedule: Q01DX001 (ip), vehicle: saline with Tween-80, higher T/C = longer survival): 136 % of control
survivor count (T/C endpoint: median survival time, dose: 30.0 mg/kg/injection, schedule: Q04DX004 (ip), vehicle: saline with Tween-80, higher T/C = longer survival): 10 of 10 on day 12
survivor count (T/C endpoint: median survival time, dose: 45.0 mg/kg/injection, schedule: Q04DX004 (ip), vehicle: saline with Tween-80, higher T/C = longer survival): 10 of 10 on day 12
T/C (T/C endpoint: median survival time, dose: 67.0 mg/kg/injection, schedule: Q01DX001 (ip), vehicle: saline with Tween-80, higher T/C = longer survival): 141 % of control
T/C (T/C endpoint: median survival time, dose: 101.0 mg/kg/injection, schedule: Q01DX001 (ip), vehicle: saline with Tween-80, higher T/C = longer survival): 127 % of control
T/C (T/C endpoint: median survival time, dose: 120.0 mg/kg/injection, schedule: Q07DX002 (ip), vehicle: saline with Tween-80, higher T/C = longer survival): 127 % of control
survivor count (T/C endpoint: median survival time, dose: 150.0 mg/kg/injection, schedule: Q07DX002 (ip), vehicle: saline with Tween-80, higher T/C = longer survival): 10 of 10
T/C (T/C endpoint: median survival time, dose: 152.0 mg/kg/injection, schedule: Q01DX001 (ip), vehicle: saline with Tween-80, higher T/C = longer survival): 129 % of control

CN(C)CCCN1c2ccccc2Sc2ccc(C(F)(F)F)cc21
survivor count [5]: 0 of 6
survivor count (T/C endpoint: mean tumor weight, dose: 100.0 mg/kg/injection, schedule: Q01DX011 (ip), vehicle: saline, higher T/C = larger tumour): 0 of 6

Cc1cc(NC(=O)N(CCCl)N=O)c(C)cc1NC(=O)c1ccccc1
T/C [6]: 128 % of control
T/C (T/C endpoint: median survival time, dose: 25.0 mg/kg/injection, schedule: Q01DX009 (ip), vehicle: saline with Tween-80, higher T/C = longer survival): 127 % of control [9 of 10 alive]
T/C [8]: 125 % of control
survivor count [9]: 10 of 10
survivor count [7]: 10 of 10
